Results: publication PMC7434902

Amino acid sequences for entries named in this document (tags omitted).
UniProt P52732: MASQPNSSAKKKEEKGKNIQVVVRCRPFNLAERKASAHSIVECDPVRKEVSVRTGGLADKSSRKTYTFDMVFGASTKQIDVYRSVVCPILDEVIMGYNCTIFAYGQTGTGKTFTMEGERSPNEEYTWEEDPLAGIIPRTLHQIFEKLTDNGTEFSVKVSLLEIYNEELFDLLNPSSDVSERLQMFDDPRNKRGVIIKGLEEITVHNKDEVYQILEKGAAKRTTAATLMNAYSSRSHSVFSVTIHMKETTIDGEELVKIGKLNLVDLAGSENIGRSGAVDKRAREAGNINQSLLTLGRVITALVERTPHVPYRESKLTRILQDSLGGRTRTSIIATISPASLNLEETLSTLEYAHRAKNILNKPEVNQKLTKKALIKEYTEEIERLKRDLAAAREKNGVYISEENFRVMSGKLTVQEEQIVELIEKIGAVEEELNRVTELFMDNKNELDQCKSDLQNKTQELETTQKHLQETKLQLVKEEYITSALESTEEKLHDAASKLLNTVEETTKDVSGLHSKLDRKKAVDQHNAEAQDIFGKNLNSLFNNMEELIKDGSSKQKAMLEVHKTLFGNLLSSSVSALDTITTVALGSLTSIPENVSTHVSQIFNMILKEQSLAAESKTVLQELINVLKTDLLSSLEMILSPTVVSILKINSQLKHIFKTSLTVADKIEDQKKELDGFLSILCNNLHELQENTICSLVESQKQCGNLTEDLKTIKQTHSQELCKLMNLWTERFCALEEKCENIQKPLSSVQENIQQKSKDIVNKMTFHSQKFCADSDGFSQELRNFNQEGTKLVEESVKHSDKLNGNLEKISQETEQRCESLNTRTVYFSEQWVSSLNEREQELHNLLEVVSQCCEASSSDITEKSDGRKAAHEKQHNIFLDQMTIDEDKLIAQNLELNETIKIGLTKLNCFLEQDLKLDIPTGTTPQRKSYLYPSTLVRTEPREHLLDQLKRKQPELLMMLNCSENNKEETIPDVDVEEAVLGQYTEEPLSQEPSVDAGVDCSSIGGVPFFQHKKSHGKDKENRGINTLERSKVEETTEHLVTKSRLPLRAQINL
UniProt O00410: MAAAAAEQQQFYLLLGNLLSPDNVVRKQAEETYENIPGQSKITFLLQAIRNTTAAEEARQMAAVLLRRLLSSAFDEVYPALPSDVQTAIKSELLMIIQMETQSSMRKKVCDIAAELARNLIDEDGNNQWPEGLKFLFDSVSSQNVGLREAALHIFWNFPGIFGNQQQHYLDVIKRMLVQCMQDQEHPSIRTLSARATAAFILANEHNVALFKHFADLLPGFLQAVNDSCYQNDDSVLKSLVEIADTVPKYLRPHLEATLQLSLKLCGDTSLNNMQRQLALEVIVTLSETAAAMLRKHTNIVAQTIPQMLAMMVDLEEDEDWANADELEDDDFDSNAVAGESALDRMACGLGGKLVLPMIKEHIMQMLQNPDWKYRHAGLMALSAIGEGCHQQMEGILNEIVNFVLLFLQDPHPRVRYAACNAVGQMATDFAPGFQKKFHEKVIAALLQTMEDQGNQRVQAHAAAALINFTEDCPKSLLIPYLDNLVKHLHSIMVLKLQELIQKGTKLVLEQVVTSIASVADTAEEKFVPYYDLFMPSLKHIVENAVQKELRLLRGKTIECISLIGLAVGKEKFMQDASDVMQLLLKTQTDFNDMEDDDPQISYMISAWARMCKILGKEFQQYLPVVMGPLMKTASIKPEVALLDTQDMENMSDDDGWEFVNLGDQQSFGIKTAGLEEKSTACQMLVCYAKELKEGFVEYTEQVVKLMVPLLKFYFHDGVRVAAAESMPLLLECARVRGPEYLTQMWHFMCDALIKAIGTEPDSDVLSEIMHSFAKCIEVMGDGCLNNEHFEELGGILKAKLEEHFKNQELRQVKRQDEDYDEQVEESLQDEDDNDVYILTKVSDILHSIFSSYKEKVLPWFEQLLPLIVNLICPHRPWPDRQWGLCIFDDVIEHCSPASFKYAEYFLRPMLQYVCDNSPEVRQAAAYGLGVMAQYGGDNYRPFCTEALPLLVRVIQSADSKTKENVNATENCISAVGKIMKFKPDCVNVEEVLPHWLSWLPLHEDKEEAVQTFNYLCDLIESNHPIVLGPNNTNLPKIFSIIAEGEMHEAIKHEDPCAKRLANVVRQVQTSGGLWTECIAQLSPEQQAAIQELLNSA
UniProt P14618: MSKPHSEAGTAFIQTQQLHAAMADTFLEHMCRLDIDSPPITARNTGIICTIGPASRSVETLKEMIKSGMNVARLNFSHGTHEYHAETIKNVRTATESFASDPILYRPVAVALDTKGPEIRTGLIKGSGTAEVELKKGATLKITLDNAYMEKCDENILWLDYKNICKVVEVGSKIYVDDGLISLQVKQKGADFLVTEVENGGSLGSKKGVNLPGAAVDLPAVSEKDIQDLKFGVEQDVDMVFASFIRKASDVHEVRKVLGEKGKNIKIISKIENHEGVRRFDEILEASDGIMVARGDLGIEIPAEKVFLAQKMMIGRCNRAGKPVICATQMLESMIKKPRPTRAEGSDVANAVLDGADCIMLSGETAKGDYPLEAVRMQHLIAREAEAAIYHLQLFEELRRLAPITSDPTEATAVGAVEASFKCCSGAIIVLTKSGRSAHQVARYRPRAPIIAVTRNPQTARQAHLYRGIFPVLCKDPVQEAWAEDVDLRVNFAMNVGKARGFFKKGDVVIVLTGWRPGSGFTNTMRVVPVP
UniProt P68104: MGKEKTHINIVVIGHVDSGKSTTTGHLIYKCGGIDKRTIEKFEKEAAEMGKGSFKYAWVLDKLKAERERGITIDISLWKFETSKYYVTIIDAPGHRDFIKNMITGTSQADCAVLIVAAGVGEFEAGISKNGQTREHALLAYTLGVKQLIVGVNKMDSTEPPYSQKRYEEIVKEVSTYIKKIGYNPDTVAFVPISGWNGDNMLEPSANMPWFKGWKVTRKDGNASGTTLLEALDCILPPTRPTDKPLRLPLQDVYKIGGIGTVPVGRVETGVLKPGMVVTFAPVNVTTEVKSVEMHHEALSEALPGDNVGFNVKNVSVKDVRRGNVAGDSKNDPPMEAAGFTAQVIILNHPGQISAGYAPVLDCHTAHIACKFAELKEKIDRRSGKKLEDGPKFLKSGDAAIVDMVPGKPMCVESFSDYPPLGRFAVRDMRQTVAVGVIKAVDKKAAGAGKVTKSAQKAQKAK
UniProt P35580: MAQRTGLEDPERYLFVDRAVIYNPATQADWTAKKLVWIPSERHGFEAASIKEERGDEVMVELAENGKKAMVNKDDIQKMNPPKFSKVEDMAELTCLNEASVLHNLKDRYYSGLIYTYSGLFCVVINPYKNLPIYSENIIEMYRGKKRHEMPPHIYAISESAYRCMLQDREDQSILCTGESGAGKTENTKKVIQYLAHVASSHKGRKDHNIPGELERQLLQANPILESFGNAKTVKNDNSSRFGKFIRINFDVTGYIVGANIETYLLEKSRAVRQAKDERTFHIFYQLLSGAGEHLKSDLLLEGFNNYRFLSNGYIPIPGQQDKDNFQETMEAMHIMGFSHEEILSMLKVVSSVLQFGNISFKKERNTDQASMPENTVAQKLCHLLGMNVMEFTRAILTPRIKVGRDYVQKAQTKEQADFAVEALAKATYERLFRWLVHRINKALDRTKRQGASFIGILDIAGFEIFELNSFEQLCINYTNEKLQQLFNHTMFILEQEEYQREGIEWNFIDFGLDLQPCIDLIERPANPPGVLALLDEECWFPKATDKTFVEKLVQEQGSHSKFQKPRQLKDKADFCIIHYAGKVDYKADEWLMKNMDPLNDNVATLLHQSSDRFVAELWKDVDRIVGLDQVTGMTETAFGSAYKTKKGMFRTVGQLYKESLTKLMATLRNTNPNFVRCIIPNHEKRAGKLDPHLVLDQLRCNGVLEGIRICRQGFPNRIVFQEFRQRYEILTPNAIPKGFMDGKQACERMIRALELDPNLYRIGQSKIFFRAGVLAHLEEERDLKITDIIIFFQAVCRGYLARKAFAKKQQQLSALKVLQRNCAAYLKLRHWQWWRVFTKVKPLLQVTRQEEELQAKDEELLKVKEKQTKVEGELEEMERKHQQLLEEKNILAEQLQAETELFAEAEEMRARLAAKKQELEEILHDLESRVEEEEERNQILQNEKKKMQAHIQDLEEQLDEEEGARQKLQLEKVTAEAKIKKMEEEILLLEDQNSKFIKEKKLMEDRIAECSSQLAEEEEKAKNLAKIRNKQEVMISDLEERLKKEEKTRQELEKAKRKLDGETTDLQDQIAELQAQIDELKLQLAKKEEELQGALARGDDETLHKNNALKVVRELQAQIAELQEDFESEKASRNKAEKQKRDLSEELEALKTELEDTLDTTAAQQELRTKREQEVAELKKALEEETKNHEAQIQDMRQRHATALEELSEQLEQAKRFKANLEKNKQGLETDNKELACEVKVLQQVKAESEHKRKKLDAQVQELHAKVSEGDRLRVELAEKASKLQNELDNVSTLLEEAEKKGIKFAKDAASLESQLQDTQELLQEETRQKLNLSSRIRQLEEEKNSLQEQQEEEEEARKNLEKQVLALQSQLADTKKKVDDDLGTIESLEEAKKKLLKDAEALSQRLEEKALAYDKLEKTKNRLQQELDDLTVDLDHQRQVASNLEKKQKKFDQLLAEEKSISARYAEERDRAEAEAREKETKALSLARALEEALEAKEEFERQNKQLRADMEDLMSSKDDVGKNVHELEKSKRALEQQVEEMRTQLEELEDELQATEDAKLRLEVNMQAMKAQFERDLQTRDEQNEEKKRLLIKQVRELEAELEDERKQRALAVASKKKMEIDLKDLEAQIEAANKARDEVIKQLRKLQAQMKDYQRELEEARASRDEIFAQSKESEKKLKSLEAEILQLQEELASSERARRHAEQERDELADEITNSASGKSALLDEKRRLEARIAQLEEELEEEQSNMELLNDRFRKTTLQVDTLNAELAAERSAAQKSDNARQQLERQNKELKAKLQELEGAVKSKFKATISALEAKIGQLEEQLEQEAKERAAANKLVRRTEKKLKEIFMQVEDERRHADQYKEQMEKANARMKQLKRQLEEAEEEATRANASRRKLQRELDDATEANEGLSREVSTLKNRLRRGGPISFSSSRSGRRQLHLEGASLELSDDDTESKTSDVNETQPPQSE
UniProt P68371: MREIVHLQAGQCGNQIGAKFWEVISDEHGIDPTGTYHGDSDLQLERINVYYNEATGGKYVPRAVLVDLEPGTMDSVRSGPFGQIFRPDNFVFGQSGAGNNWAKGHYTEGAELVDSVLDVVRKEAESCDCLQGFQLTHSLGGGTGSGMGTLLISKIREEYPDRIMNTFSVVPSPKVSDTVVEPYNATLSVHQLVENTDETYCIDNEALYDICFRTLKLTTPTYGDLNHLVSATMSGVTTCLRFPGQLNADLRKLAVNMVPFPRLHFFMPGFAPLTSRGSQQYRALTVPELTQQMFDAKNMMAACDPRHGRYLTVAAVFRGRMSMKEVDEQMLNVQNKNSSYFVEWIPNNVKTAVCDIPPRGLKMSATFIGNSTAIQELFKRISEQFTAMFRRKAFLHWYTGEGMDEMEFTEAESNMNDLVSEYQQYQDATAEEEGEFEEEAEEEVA
UniProt Q96A65: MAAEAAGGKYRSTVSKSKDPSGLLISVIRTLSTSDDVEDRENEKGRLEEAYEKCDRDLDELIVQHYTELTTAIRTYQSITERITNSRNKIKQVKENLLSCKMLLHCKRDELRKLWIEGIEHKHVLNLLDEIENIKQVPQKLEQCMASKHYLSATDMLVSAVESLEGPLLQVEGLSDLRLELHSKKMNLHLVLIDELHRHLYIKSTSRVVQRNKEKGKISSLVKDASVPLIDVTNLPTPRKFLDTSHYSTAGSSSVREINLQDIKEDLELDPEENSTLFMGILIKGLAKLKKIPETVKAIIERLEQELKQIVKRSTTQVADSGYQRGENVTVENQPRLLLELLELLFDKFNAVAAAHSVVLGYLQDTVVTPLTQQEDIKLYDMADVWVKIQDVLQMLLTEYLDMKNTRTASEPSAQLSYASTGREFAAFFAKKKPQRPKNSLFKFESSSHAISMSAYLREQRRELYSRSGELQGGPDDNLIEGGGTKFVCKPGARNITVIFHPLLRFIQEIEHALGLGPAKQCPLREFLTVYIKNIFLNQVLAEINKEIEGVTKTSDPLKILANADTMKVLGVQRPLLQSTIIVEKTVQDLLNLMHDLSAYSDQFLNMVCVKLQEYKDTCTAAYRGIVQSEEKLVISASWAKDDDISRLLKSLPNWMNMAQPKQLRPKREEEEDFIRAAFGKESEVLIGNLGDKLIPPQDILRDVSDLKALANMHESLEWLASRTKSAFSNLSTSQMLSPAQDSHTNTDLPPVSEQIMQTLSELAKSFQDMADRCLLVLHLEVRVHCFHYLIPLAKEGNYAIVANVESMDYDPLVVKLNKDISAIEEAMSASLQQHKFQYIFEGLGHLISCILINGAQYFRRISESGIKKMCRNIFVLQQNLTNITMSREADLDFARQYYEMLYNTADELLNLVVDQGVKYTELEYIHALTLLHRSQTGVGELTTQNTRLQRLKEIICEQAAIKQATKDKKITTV

B1: SEPT2 (protein, UniProt Q15019 1-361)
chain: MSKQQPTQFINPETPGYVGFANLPNQVHRKSVKKGFEFTLMVVGESGLGKSTLINSLFLTDLYPERVIPGAAEKIERTVQIEASTVEIEERGVKLRLTVVDTPGYGDAINCRDCFKTIISYIDEQFERYLHDESGLNRRHIIDNRVHCCFYFISPFGHGLKPLDVAFMKAIHNKVNIVPVIAKADTLTLKERERLKKRILDEIEEHNIKIYHLPDAESDEDEDFKEQTRLLKASIPFSVVGSNQLIEAKGKKVRGRLYPWGVVEVENPEHNDFLKLRTMLITHMQDLQEVTQDLHYENFRSERLKRGGRKVENEDMNKDQILLEKEAELRRMQEMIARMQAQMQMQMQGGDGDGGALGHHV
B2: SEPT9 (protein, UniProt Q9UHD8 1-586)
chain: MKKSYSGGTRTSSGRLRRLGDSSGPALKRSFEVEEVETPNSTPPRRVQTPLLRATVASSTQKFQDLGVKNSEPSARHVDSLSQRSPKASLRRVELSGPKAAEPVSRRTELSIDISSKQVENAGAIGPSRFGLKRAEVLGHKTPEPAPRRTEITIVKPQESAHRRMEPPASKVPEVPTAPATDAAPKRVEIQMPKPAEAPTAPSPAQTLENSEPAPVSQLQSRLEPKPQPPVAEATPRSQEATEAAPSCVGDMADTPRDAGLKQAPASRNEKAPVDFGYVGIDSILEQMRRKAMKQGFEFNIMVVGQSGLGKSTLINTLFKSKISRKSVQPTSEERIPKTIEIKSITHDIEEKGVRMKLTVIDTPGFGDHINNENCWQPIMKFINDQYEKYLQEEVNINRKKRIPDTRVHCCLYFIPATGHSLRPLDIEFMKRLSKVVNIVPVIAKADTLTLEERVHFKQRITADLLSNGIDVYPQKEFDEDSEDRLVNEKFREMIPFAVVGSDHEYQVNGKRILGRKTKWGTIEVENTTHCEFAYLRDLLIRTHMQNIKDITSSIHFEAYRVKRLNEGSSAMANGMEEKEPEAPEM
B3: ANXA1 (protein, UniProt P04083 1-346)
chain: MAMVSEFLKQAWFIENEEQEYVQTVKSSKGGPGSAVSPYPTFNPSSDVAALHKAIMVKGVDEATIIDILTKRNNAQRQQIKAAYLQETGKPLDETLKKALTGHLEEVVLALLKTPAQFDADELRAAMKGLGTDEDTLIEILASRTNKEIRDINRVYREELKRDLAKDITSDTSGDFRNALLSLAKGDRSEDFGVNEDLADSDARALYEAGERRKGTDVNVFNTILTTRSYPQLRRVFQKYTKYSKHDMNKVLDLELKGDIEKCLTAIVKCATSKPAFFAEKLHQAMKGVGTRHKALIRIMVSRSEIDMNDIKAFYQKMYGISLCQAILDETKGDYEKILVALCGGN
B4: HK1 (protein, UniProt P19367 1-917)
chain: MIAAQLLAYYFTELKDDQVKKIDKYLYAMRLSDETLIDIMTRFRKEMKNGLSRDFNPTATVKMLPTFVRSIPDGSEKGDFIALDLGGSSFRILRVQVNHEKNQNVHMESEVYDTPENIVHGSGSQLFDHVAECLGDFMEKRKIKDKKLPVGFTFSFPCQQSKIDEAILITWTKRFKASGVEGADVVKLLNKAIKKRGDYDANIVAVVNDTVGTMMTCGYDDQHCEVGLIIGTGTNACYMEELRHIDLVEGDEGRMCINTEWGAFGDDGSLEDIRTEFDREIDRGSLNPGKQLFEKMVSGMYLGELVRLILVKMAKEGLLFEGRITPELLTRGKFNTSDVSAIEKNKEGLHNAKEILTRLGVEPSDDDCVSVQHVCTIVSFRSANLVAATLGAILNRLRDNKGTPRLRTTVGVDGSLYKTHPQYSRRFHKTLRRLVPDSDVRFLLSESGSGKGAAMVTAVAYRLAEQHRQIEETLAHFHLTKDMLLEVKKRMRAEMELGLRKQTHNNAVVKMLPSFVRRTPDGTENGDFLALDLGGTNFRVLLVKIRSGKKRTVEMHNKIYAIPIEIMQGTGEELFDHIVSCISDFLDYMGIKGPRMPLGFTFSFPCQQTSLDAGILITWTKGFKATDCVGHDVVTLLRDAIKRREEFDLDVVAVVNDTVGTMMTCAYEEPTCEVGLIVGTGSNACYMEEMKNVEMVEGDQGQMCINMEWGAFGDNGCLDDIRTHYDRLVDEYSLNAGKQRYEKMISGMYLGEIVRNILIDFTKKGFLFRGQISETLKTRGIFETKFLSQIESDRLALLQVRAILQQLGLNSTCDDSILVKTVCGVVSRRAAQLCGAGMAAVVDKIRENRGLDRLNVTVGVDGTLYKLHPHFSRIMHQTVKELSPKCNVSFLLSEDGSGKGAALITAVGVRLRTEASS

Target: KIF11 (human (endogenous in RPE1)) (UniProt P52732)
Test: affinity purification with mass spectrometry; endogenous KIF11 immunoprecipitated (anti-KIF11 antibody on Dynabeads Protein G, overnight at 4 °C) from 25 mg of G0 synchronized RPE1 whole cell extract; LC-MS/MS on beads, or of the KIF11 band cut from a gel after boiling off the beads

Molecule | binding
IPO5 (from UniProt O00410 1-1097) | binds
PKM (from UniProt P14618 1-531) | binds
SPTAN1 (from UniProt Q13813 1-2472) | binds
HSPA8 (from UniProt P11142 1-646) | binds
EEF1A1 (from UniProt P68104 1-462) | binds
SF3B2 (from UniProt Q13435 1-895) | binds
CLTC (from UniProt Q00610 1-1675) | binds
HSP90AB1 (from UniProt P08238 1-724) | binds
KIF5B/Kinesin-1 (from UniProt P33176 1-963) | binds
MYH10 (from UniProt P35580 1-1976) | binds
DCTN1 (from UniProt Q14203 1-1278) | binds
TUBB4B (from UniProt P68371 1-445) | binds
GSN (from UniProt P06396 28-782) | binds
EXOC4 (from UniProt Q96A65 1-974) | binds
ATP2B4 (from UniProt P23634 1-1241) | binds
FLNA (from UniProt P21333 1-2647) | binds
HSP90B1 (from UniProt P14625 22-803) | binds
HSP90AA1 (from UniProt P07900 1-732) | binds
B1 | binds
B2 | binds
B3 | binds
B4 | binds

These are yes or no findings as the source states them, for the method shown. Binding seen in cells or lysates may run through a third protein. Here binding means that the protein was enriched with, or labelled near, the bait; the list need not be complete.
